The values that follow come from article PMC8755526.

Results are given in words; binding and its absence hold for the method and conditions named. In cells and extracts the contact can be indirect.

This assay concerns the target full-length, wild-type PLK1 (Flag-, Myc- or V5-tagged) (human) (UniProt P53350). The assay can be described thus: co-IP; HEK293T cells co-transfected with differently tagged constructs; lysates incubated with Protein G Sepharose and the tag-specific antibody overnight at 4 °C, washed 3x with 20 mM Tris-HCl pH 8.2, 150 mM NaCl, 1% Triton X-100; western blot; also in cells treated with Bora siRNA.

B1: LAT (protein, UniProt O43561 1-262)
chain: MEEAILVPCVLGLLLLPILAMLMALCVHCHRLPGSYDSTSSDSLYPRGIQFKRPHTVAPWPPAYPPVTSYPPLSQPDLLPIPRSPQPLGGSHRTPSSRRDSDGANSVASYENEGASGIRGAQAGWGVWGPSWTRLTPVSLPPEPACEDADEDEDDYHNPGYLVVLPDSTPATSTAAPSAPALSTPGIRDSAFSMESIDDYVNVPESGESAEASLDGSREYVNVSQELHPGAAKTEPAALSSQEAEEVEEEGAPDYENLQELN
As for B1, the binding entry is “no binding”.
